Experimental data from paper PMC11349225.

Target: A. japonicus Myc (AjMyc), endogenous (Apostichopus japonicus (endogenous in coelomocytes))
Assay: affinity purification with mass spectrometry; immunoprecipitation from coelomocyte lysate with anti-AjMyc antibodies or pre-immune serum, followed by MS (PXD051548)

binding: binds
B1: A. japonicus OTU domain-containing ubiquitin aldehyde-binding protein 1 (AjOTUB1), endogenous (enzyme, UniProt A0AB39JB66 1-266)
chain: MAENPDNKIDEEIERLTGMVRDEAILAQQDRIQKEVEDSNALVSERLPLLILKEEYQSDPIYSKKIEDMNASFPYIRKTRGDGNCFFRAFGFAYMEKLLSDKAELHRFKEIIEKSKDTLISLGCPSFTLMDFHDTFMEVVNQLEEKPSLSELVATYCDQGMSDYLVVYLRLLTSLELQKEAEFYQNFVEGNRTVKEFCSQEVEPMYKESDHIHIIALTSYLGVGVRVVYLDRGENQKVNHHDFPEGMPPQIALLYRPGHYDVLYGD

These are yes or no findings as the source states them, for the method shown. Binding seen in cells or lysates may run through a third protein. These calls come from enrichment with a bait or labelling near it, and not all partners need be listed.
